Test [1] has as its target TNFa (UniProt P01375). In words: ELISA: in vitro translated dAb captured on the plate, incubated with a concentration range of biotinylated TNFa, detected with streptavidin-HRP. On the technique in general: An ELISA detects its analyte on a solid surface through an enzyme-linked reagent.
The target in test [2] is TNFa (UniProt P01375). Kind of test: ELISA with biotinylated TNFa (FIG. 5), free dAb.

Protein sequences, listed by entry. Tags and fused reporters are not part of them. Residues count along the entry.
UniProt P01375, residues 77-233: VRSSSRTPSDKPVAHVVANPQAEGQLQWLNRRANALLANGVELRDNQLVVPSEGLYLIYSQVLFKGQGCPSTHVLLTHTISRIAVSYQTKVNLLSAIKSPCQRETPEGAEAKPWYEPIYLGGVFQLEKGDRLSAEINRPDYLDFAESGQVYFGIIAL

These are yes or no findings as the source states them, for the method shown. Some entries that bind do so weakly or less than the wild type.

B1: Vk(TAR1-5-19) (protein)
VL: MASTDIQMTQSPSSLSASVGDRVTITCRASQSIDSYLHWYQQKPGKAPKLLIYSASELQSGVPSRFSGSGSGTDFTLTISSLQPEDFATYYCQQVVWRPFTFGQGTKVEIKRAA
In the case of B1, the binding entry with TNFa [1] and with TNFa [2] was “binds” each time.

The values are drawn from patent publication US20080038735A1.
